The record followed here is PMC6756068.

By UniProt entry, the sequences of proteins in these tests, tags left out. Where a name states a change or a piece, a line headed by the entry shows the natural chain unless it says otherwise.
UniProt P20936: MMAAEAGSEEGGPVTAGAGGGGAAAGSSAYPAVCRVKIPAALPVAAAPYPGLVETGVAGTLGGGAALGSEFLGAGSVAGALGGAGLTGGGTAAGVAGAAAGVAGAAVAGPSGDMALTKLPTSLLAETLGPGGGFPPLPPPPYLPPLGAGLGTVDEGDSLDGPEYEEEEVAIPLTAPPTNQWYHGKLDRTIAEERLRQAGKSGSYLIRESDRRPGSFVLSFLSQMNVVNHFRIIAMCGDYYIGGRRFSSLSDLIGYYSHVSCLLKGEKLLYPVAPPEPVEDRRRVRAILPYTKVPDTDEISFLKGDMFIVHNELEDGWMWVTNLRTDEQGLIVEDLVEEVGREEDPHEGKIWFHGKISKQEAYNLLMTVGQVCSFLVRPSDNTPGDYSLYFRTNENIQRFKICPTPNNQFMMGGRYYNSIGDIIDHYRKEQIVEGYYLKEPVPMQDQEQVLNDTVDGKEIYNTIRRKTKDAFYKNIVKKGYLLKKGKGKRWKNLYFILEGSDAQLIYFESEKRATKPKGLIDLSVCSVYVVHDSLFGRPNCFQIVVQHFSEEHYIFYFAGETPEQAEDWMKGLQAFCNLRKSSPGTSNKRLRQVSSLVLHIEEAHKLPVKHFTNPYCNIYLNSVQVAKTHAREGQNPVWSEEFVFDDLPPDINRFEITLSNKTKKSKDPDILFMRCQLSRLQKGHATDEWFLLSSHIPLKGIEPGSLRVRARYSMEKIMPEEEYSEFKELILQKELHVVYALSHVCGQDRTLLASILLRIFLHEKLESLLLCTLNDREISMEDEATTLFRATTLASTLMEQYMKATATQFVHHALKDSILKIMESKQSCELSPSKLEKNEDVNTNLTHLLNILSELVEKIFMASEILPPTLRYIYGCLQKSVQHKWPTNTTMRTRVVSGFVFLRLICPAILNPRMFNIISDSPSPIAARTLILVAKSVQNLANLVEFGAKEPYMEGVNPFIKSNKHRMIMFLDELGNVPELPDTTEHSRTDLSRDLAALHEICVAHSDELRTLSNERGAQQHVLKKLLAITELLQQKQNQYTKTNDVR
UniProt P35240: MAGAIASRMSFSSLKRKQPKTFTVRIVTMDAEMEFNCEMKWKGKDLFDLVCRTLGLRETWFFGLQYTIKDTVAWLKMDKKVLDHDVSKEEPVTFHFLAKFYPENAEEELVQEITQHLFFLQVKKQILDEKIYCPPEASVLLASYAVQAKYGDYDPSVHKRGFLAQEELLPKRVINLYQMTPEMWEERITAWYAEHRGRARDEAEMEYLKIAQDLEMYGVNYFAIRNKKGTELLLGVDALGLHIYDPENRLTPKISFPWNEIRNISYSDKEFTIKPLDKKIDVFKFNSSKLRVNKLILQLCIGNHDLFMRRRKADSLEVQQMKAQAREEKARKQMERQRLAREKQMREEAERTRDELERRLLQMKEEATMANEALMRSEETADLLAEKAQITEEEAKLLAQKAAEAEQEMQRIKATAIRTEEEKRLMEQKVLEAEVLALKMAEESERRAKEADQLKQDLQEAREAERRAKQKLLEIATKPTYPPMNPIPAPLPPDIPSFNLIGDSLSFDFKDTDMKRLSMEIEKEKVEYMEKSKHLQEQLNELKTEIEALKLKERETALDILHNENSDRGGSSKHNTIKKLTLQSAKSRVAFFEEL

Results are given in words; binding and its absence hold for the method and conditions named. Binding seen in cells or lysates may run through a third protein.

Experiment [1] concerns the target Cerl-RasGAP ΔPH-C2 (UniProt P20936). In words: split reporter; BiFC with split cerulean (Cerf, Cerl) constructs cotransfected with pEYFP-C1 into 293T cells, fixed about 48 h later.
Experiment [2] deals with EGFP-RasGAP ΔPH (UniProt P20936). In words: co-IP; merlin cotransfected with EGFP-RasGAP constructs in Sc4 cells (merlin-deficient).

Take Cerf-merlin (from UniProt P35240 1-595): the binding result in experiment [1] is “no binding”.
Regarding “merlin cotransfected in Sc4 cells (from UniProt P35240 1-595)”, in experiment [2], the binding entry is “no binding”.
